PubChem BioAssay AID1259294, Sanger Institute, 2017

Assay: 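Retest synthetic lethal gene and drug pairs with separate siRNA duplexes in CL40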 (follow-up of hits)
Cells: human CL40 colorectal cancer cells
Reagents: single siRNA against human genes
Treatment: anchor drug or DMSO vehicle added to knock-down cells: BYL719 1 µM, cetuximab 5 µg/ml, trametinib 10 nM
Measured: 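Viability averaged across replicates, each scaled to control pool 2 (non-targeting), under vehicle or anchor drug; synergy score compares observed combined effect with expected effect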
Direction: synergy score with trametinib and synergy score with BYL719 and synergy score with cetuximab: higher = stronger synergistic (synthetic lethal) killing; viability, knock-down alone: higher = more cells survive knock-down; viability, knock-down plus trametinib: higher = more cells survive combination
Rule for the call: 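a synergy score over 0.10 with BYL719, cetuximab or trametinib marks synergy with a drug; lacking such a score means no synergy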
Calls: active = synergy with a drug; inactive = no synergy
The whole screen tested 160 reagents; shown is an unselected part. 43 of them (27%) were called active. 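Calls mean synergy with any one drug, not lethality of knock-down alone; BYL719 1 µM, cetuximab 5 µg/ml, trametinib 10 nM barely cut viability.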 Unmarked entries are inactive. Reagents against one gene are numbered here. No viability above 1 is reported: the scale is capped. Not stated in the record: the amount of reagent, the time to read-out.

Gene	reagent	synergy score with trametinib	synergy score with BYL719	synergy score with cetuximab	viability, knock-down alone (fraction of control)	viability, knock-down plus trametinib (fraction of control)
COASY (Coenzyme A synthase)	1	0.0176	-0.184	-0.0126	0.723	0.312
COASY (Coenzyme A synthase)	2	0.0395	0.0381	-0.189	0.761	0.307
COASY (Coenzyme A synthase)	3	0.0126	-0.0337	0.0481	0.393	0.167
COASY (Coenzyme A synthase)	4	0.086	0.0453	-0.0626	0.49	0.137
GTF2H1 (general transcription factor IIH subunit 1)	1	-0.0853	-0.19	-0.258	0.694	0.401
GTF2H1 (general transcription factor IIH subunit 1)	2	-0.0312	-0.225	-0.105	0.949	0.464
GTF2H1 (general transcription factor IIH subunit 1)	3	-0.186	-0.265	-0.106	1	0.641
GTF2H1 (general transcription factor IIH subunit 1)	4	-0.0273	-0.0273	-0.126	0.365	0.194
STK36 (serine/threonine kinase 36)	1	0.00288	-0.317	-0.061	0.495	0.223
STK36 (serine/threonine kinase 36)	2	0.0713	-0.088	-0.106	1	0.384
STK36 (serine/threonine kinase 36)	3	0.0319	-0.271	-0.0688	0.911	0.383
STK36 (serine/threonine kinase 36)	4	-0.0291	-0.281	-0.106	1	0.485
IRAK1 (interleukin 1 receptor associated kinase 1)	1	0.15 (active)	0.081	-0.106	1	0.306
IRAK1 (interleukin 1 receptor associated kinase 1)	2	-0.0483	-0.204	-0.108	0.998	0.503
IRAK1 (interleukin 1 receptor associated kinase 1)	3	0.159 (active)	0.0651	-0.114	0.872	0.238
IRAK1 (interleukin 1 receptor associated kinase 1)	4	-0.179	-0.377	-0.157	0.926	0.601
BMPR2 (bone morphogenetic protein receptor type 2)	1	0.0262	-0.2	-0.106	1	0.429
BMPR2 (bone morphogenetic protein receptor type 2)	2	0.164 (active)	-0.232	-0.025	0.972	0.279
BMPR2 (bone morphogenetic protein receptor type 2)	3	0.0327	-0.209	-0.106	1	0.423
BMPR2 (bone morphogenetic protein receptor type 2)	4	-0.213	-0.322	-0.106	1	0.668
